We go through twelve substances from publication PMC7852545, “Cell fate determined by the activation balance between PKR and SPHK1” (Cell Death and Differentiation, 2020).

Amino acid sequences for entries named in this document (tags omitted). A change or cut given only in a name is not applied to a line headed by its entry. Chains listed by the source or under a name are the forms on record and can include a tag or linker.
UniProt Q9NYA1: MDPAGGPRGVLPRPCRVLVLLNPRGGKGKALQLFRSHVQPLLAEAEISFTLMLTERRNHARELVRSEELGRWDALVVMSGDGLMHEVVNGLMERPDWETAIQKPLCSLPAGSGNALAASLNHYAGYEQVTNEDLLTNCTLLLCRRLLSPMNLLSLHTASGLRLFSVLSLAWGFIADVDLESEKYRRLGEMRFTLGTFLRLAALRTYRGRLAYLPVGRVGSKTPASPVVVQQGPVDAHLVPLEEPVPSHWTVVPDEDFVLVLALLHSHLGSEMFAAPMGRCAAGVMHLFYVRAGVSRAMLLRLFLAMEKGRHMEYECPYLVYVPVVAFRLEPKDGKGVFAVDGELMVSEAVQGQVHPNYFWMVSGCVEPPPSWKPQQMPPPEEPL
SPHK1^225D-Flag (phosphomimetic mutant of SPHK1) (Q9NYA1, form named): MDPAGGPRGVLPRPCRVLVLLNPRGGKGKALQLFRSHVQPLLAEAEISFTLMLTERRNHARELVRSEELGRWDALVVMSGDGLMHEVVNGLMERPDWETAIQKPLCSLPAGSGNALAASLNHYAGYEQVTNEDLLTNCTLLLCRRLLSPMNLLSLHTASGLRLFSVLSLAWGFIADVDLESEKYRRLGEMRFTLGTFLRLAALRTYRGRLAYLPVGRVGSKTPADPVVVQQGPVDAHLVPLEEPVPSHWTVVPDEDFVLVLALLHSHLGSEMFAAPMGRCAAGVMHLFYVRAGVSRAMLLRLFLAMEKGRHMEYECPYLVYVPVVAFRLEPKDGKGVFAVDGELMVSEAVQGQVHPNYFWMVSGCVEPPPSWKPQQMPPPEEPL
SPHK1^225A-Flag (phosphorylation-deficient mutant of SPHK1) (Q9NYA1, form named): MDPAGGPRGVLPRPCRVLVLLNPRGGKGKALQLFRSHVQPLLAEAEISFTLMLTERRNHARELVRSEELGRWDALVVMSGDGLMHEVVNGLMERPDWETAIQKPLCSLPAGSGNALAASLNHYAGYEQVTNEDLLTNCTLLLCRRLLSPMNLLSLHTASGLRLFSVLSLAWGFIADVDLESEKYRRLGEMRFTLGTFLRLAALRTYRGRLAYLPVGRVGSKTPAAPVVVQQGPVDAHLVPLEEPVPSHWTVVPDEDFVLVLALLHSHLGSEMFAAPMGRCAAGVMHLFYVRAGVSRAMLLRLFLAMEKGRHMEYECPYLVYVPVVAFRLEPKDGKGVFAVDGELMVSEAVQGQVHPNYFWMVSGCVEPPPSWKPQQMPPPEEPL
UniProt P19525: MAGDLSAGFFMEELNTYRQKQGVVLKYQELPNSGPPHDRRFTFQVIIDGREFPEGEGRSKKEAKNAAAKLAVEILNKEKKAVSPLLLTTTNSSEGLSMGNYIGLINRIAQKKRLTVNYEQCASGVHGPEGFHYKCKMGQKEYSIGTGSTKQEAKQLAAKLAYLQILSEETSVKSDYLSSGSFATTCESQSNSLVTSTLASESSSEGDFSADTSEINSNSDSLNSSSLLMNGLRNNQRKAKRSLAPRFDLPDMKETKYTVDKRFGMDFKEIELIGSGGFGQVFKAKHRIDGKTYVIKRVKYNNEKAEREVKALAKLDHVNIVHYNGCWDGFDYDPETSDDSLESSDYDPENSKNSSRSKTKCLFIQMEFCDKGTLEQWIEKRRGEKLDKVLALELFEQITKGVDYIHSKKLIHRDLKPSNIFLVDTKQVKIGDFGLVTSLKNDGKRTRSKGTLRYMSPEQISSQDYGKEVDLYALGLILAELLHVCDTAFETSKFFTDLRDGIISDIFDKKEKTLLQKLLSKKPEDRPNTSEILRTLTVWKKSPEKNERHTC
PKR^451A (co-IP of Supplementary Fig. 14b) (P19525, form named): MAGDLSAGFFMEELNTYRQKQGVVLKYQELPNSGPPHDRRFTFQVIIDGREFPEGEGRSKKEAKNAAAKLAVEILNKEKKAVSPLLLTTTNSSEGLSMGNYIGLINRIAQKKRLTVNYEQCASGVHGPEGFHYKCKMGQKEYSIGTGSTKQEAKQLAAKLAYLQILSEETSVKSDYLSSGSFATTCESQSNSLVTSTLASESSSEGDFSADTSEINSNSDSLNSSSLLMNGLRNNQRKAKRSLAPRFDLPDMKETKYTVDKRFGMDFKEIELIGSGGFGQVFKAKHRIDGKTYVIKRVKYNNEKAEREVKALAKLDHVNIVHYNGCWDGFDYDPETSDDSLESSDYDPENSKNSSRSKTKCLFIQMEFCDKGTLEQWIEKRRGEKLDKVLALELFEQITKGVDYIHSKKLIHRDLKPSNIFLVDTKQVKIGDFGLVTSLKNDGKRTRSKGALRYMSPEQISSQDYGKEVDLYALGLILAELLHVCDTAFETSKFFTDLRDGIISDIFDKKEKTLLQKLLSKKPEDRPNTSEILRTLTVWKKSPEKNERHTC
PKR^451D-Flag (P19525, form named): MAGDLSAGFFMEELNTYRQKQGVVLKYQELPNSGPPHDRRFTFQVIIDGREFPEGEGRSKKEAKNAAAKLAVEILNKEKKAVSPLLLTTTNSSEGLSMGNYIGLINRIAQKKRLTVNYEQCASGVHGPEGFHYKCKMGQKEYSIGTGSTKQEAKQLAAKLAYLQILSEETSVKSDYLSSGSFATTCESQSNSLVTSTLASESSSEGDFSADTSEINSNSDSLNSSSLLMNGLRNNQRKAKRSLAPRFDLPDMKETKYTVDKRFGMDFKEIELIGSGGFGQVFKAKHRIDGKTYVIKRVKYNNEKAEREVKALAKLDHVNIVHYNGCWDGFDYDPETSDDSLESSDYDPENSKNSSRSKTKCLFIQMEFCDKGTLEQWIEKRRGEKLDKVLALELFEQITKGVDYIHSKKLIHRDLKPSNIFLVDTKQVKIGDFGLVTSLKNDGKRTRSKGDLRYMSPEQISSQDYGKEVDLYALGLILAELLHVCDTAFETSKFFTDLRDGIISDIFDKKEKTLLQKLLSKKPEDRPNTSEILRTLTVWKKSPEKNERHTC

The target in one experiment is SPHK1^225D-VC155 (human) (UniProt Q9NYA1). Kind of experiment: split reporter; BiFC with Venus fragments; PKR-VN173 and SPHK1-VC155 constructs and the mutants transfected into HEK293T for 24 h; living cells, confocal microscopy.
For experiment [1], the target named is PKR^451A (co-IP of Supplementary Fig. 14b) (human) (UniProt P19525). Kind of experiment: co-IP; Supplementary Fig. 14b; SPHK1^225D or SPHK1^225A immunoprecipitated by PKR and its mutants; constructs and cells not shown.
For experiment [2], the target named is PKR (co-IP of Supplementary Fig. 14b) (human) (UniProt P19525). The description is as above.
Experiment [3] addresses SPHK1^225D-Flag (phosphomimetic mutant of SPHK1) (human) (UniProt Q9NYA1). The experiment is described as follows: co-IP; HEK293T transfected with Flag-tagged SPHK1 (0, 1, 2, 3 ug DNA; wild type, 225A or 225D); immunoprecipitation with antibodies against Flag or PKR; endogenous PKR and phosphorylated PKR detected by blot.
The target in experiment [4] is SPHK1^225A-Flag (phosphorylation-deficient mutant of SPHK1) (human) (UniProt Q9NYA1). The experiment is described as above.
Experiment [5] addresses SPHK1-Flag (sphingosine kinase 1, wild type, Flag-tagged) (human) (UniProt Q9NYA1). Described as above.
The target in experiment [6] is endogenous SPHK1 (human (endogenous in HEK293T)) (UniProt Q9NYA1). Kind of experiment: co-IP; endogenous proteins in HEK293T lysate; immunoprecipitation with the indicated antibodies; also after 2 ng/mL leptomycin B for 2 h (interaction enhanced).
Experiment [7] has as its target endogenous phosphorylated SPHK1 (phospho-Ser225) (human (endogenous in HEK293T)) (UniProt Q9NYA1). The description is as above.
The next experiment addresses SPHK1-VC155 (human) (UniProt Q9NYA1). The experiment is described as follows: split reporter; BiFC with Venus fragments; PKR-VN173 and SPHK1-VC155 constructs and the mutants transfected into HEK293T for 24 h; living cells, confocal microscopy.
The target in experiment [8] is endogenous SPHK1 (human (endogenous in HEK293T)) (UniProt Q9NYA1). The experiment is described as follows: co-IP; HEK293T transfected with Flag-tagged PKR (wild type, 451A, 451D); immunoprecipitation with the indicated antibodies; endogenous SPHK1 and phosphorylated SPHK1 detected.
Experiment [9] addresses endogenous phosphorylated SPHK1 (phospho-Ser225) (human (endogenous in HEK293T)) (UniProt Q9NYA1). Described as above.
Experiment [10] deals with SPHK1-Flag (sphingosine kinase 1, wild type, Flag-tagged) (human) (UniProt Q9NYA1). Kind of experiment: co-IP; HepG2 and HEK293T transfected with SPHK1-Flag and the two PKR-HA deletion mutants; immunoprecipitation with an anti-Flag antibody.
In a further experiment the target is GST-SPHK1 (human) (UniProt Q9NYA1). Kind of experiment: pull-down; GST-SPHK1 bound to agarose beads (30 ug GST fusion protein) added to lysate of 293T cells overexpressing PKR-HA; 4 h at 4 °C; washed with NETN buffer; only the target purified.
In experiment [11] the target is SPHK1-Flag (sphingosine kinase 1, wild type, Flag-tagged) (human) (UniProt Q9NYA1). The experiment is described as follows: co-IP; HEK293T co-transfected with SPHK1-Flag and PKR-Myc for 24 h; lysis in NETN buffer (20 mM Tris-HCl pH 8.0, 100 mM NaCl, 1 mM EDTA, 0.5% NP-40); anti-Flag (M2) magnetic beads; blot with anti-Myc and anti-Flag.

No constants are given. Whether binding was seen depends on the method and setting. In cells and extracts the contact can be indirect. Some entries that bind do so weakly or less than the wild type.

As for “PKR^451A-VN173 (from UniProt P19525 1-551) (enzyme)”, the binding entry with SPHK1^225D-VC155 (human) was “binds”.
Consider “SPHK1^225A (co-IP of Supplementary Fig. 14b) (from UniProt Q9NYA1 1-384) (enzyme)”, for which the binding result in experiment [1] and in experiment [2] was “binds” throughout.
For the substance “endogenous PKR (from UniProt P19525 1-551) (enzyme)”, the binding result in [3], in experiment [4], in experiment [5], in experiment [6] and in experiment [7] was “binds” throughout.
Consider “PKR-VN173 (from UniProt P19525 1-551) (enzyme)”, for which the binding result in the experiment with SPHK1-VC155 (human) and with SPHK1^225D-VC155 (human) was “binds” each time.
In the case of “PKR^451A-Flag (from UniProt P19525 1-551) (enzyme)”, the binding result in experiment [8] and in experiment [9] was “binds” in each case.
For the substance “SPHK1^225D (co-IP of Supplementary Fig. 14b) (from UniProt Q9NYA1 1-384) (enzyme)”, the binding entry in [1] and in experiment [2] was “binds” throughout.
Take “PKR-HA deletion mutant D2 (C-terminal kinase part of PKR) (from UniProt P19525 297-551) (domain or fragment)”: the binding entry in [10] is given as “binds”.
Turning to “PKR^451D-Flag (from UniProt P19525 1-551) (enzyme)”, the binding entry in [8] and in experiment [9] was “binds” each time.
On to “PKR-Flag (wild type) (from UniProt P19525 1-551) (enzyme)”, for which the binding result in [8] and in experiment [9] was “binds” in each case.
“PKR-HA (double-stranded RNA-dependent protein kinase R, HA-tagged) (from UniProt P19525 1-551) (enzyme)”: in the experiment with GST-SPHK1 (human), the binding entry was “binds”.
“endogenous phosphorylated PKR (phospho-Thr451) (from UniProt P19525 1-551) (enzyme)”: the binding entry in [3], in experiment [4] and in experiment [5] was “binds” throughout.
As for “PKR-Myc (double-stranded RNA-dependent protein kinase R, Myc-tagged) (from UniProt P19525 1-551) (enzyme)”, the binding entry in experiment [11] was “binds”.
